Data taken from publication PMC9818449.
Like-named read-outs stand apart in the source and are kept apart here. No constants are given. Whether binding was seen depends on the method and setting. Binding seen in cells or lysates may run through a third protein. Some entries that bind do so weakly or less than the wild type.

Chains of the proteins cited; added tags and fusions are not shown.
UniProt P31269: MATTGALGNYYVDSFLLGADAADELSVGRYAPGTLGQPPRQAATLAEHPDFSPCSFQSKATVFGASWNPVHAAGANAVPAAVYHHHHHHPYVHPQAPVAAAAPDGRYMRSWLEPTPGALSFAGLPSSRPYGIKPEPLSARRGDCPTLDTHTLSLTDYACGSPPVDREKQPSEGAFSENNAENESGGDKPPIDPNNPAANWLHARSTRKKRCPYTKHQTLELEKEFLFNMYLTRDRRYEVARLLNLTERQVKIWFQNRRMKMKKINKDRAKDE
UniProt P49639: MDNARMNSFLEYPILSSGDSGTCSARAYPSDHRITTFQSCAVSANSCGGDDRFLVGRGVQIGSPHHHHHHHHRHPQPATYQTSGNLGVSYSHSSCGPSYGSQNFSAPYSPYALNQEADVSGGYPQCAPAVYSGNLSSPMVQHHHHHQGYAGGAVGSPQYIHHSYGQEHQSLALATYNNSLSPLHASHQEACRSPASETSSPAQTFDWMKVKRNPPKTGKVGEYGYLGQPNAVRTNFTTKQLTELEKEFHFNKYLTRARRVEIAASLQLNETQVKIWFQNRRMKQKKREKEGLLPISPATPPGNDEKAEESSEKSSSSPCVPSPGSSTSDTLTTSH
UniProt Q92826: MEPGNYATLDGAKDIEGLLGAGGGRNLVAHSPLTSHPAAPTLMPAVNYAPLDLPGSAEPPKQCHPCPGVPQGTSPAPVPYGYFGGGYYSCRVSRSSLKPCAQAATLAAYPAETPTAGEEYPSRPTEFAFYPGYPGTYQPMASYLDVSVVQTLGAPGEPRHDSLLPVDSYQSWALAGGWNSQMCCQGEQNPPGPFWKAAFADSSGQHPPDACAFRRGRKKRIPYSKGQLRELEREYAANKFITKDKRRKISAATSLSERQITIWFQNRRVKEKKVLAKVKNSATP
UniProt P09630: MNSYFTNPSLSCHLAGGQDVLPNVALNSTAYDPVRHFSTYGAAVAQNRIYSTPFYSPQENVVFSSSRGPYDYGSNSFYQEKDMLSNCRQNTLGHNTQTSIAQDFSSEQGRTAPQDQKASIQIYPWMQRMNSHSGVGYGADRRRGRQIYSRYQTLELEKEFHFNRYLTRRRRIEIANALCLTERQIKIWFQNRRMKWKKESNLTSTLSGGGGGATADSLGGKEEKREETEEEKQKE
UniProt P31273: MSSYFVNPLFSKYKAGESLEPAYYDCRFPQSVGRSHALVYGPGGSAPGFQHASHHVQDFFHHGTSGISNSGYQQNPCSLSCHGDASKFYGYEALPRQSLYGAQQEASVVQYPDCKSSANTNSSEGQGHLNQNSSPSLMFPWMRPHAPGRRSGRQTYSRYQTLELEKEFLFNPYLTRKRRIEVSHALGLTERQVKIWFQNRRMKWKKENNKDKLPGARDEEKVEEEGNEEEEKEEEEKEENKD
UniProt Q99612: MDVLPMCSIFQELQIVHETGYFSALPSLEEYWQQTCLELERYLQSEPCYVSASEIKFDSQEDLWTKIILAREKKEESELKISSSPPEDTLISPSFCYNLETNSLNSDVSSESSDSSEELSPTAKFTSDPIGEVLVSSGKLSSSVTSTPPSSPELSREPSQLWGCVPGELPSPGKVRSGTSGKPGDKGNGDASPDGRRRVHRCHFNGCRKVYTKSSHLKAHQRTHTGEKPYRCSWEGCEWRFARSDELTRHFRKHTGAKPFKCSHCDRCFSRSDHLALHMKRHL
UniProt Q96F45: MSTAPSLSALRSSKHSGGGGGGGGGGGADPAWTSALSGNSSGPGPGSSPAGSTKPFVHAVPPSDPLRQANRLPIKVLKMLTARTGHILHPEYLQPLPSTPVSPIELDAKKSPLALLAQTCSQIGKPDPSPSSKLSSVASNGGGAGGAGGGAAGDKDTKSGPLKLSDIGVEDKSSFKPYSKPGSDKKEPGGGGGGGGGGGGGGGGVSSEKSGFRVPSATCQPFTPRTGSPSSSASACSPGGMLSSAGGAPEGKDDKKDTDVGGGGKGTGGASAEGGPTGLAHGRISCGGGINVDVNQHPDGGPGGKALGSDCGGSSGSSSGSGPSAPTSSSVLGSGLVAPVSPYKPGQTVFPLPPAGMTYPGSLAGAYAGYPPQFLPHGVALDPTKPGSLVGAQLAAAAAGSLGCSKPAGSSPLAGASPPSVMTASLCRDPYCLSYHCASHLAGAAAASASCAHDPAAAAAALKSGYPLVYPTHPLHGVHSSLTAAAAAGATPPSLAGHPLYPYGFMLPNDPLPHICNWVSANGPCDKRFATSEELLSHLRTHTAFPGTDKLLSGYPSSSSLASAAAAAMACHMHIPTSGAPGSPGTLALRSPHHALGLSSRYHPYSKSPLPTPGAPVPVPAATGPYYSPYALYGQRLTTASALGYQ
UniProt P78337: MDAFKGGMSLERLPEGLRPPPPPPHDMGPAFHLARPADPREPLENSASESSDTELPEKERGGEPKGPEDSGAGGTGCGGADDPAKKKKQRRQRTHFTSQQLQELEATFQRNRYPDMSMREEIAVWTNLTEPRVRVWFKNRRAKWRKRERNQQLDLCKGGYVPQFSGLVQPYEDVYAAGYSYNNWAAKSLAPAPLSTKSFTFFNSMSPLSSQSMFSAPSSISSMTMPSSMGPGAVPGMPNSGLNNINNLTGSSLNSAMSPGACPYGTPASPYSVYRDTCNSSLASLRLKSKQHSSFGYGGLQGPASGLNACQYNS

Key:
VN-HOXA9 (human) [1] = molecular target: VN-HOXA9 (human) (UniProt P31269); test: split reporter; individual BiFC in live HEK293T cells: plix-VN-HOXA9, plix-CC-ORF and plix-mCherry co-transfected, 18 h with doxycycline 100 ng/mL, confocal imaging; HOXA9/PBX1 as calibrator
HA-HOXA9 (human) = HA-HOXA9 (human) (UniProt P31269); test: co-IP; HEK-293T co-transfected with HA-tagged HOX and CC-ORF, doxycycline 200 ng/mL, 48 h; NP40 buffer (20 mM Tris pH 7.5, 150 mM NaCl, 2 mM EDTA, 1% NP40), Benzonase; anti-HA magnetic beads; CC-ORF revealed with anti-GFP
VN-HOXA9 (human) [2] = molecular target: VN-HOXA9 (human) (UniProt P31269); test: split reporter; Cell-PCA screen: VN-HOX bait plasmid transfected into CC-HEK-1 and CC-HEK-2 cells with the integrated CC-ORF library (basal TRE expression); BiFC-positive cells sorted by flow cytometry 18 h after transfection, ORFs identified by NGS; hits by log2FC >= 1.5 in both lines or >= 6 in one
VN-HOXA1 (human) [3] = molecular target: VN-HOXA1 (human) (UniProt P49639); test: as above
VN-HOXB13 (human) [4] = molecular target: VN-HOXB13 (human) (UniProt Q92826); test: split reporter; individual BiFC of VN-HOXB13 and CC-CREB3L4 in fixed HEK293T cells, mCherry reporter and DAPI, confocal imaging
HA-HOXB13 (human) = HA-HOXB13 (human) (UniProt Q92826); test: co-IP; HEK-293T co-transfected with HA-tagged HOX and CC-ORF, doxycycline 200 ng/mL, 48 h; NP40 buffer (20 mM Tris pH 7.5, 150 mM NaCl, 2 mM EDTA, 1% NP40), Benzonase; anti-HA magnetic beads; CC-ORF revealed with anti-GFP
VN-HOXB13 (human) [5] = molecular target: VN-HOXB13 (human) (UniProt Q92826); test: split reporter; Cell-PCA screen: VN-HOX bait plasmid transfected into CC-HEK-1 and CC-HEK-2 cells with the integrated CC-ORF library (basal TRE expression); BiFC-positive cells sorted by flow cytometry 18 h after transfection, ORFs identified by NGS; hits by log2FC >= 1.5 in both lines or >= 6 in one
VN-HOXA9 (human) [6] = molecular target: VN-HOXA9 (human) (UniProt P31269); test: as above; remark: listed apart in the source
VN-HOXC6 (human) = VN-HOXC6 (human) (UniProt P09630); test: as above
VN-HOXA1 (human) [7] = molecular target: VN-HOXA1 (human) (UniProt P49639); test: as above; remark: listed apart in the source
VN-HOXC8 (human) = VN-HOXC8 (human) (UniProt P31273); test: as above

For CC-KLF6 (from UniProt Q99612 1-283), the binding (VN-HOXA9 (human) [1]) was “binds”, the binding (HA-HOXA9 (human)) was “binds” and the binding (VN-HOXA9 (human) [2]) was “binds”.

In the case of CC-ZNF503 (from UniProt Q96F45 1-646), the binding (VN-HOXA1 (human) [3]) is reported as “binds”.

CC-PITX1 (from UniProt P78337 1-314) was tested, and the binding (VN-HOXA9 (human) [1]) was “binds”, the binding (HA-HOXA9 (human)) was “binds” and the binding (VN-HOXA9 (human) [2]) was “binds”.

B1: CC-CREB3L4 (protein, UniProt Q8TEY5 1-395)
chain: MDLGIPDLLDAWLEPPEDIFSTGSVLELGLHCPPPEVPVTRLQEQGLQGWKSGGDRGCGLQESEPEDFLKLFIDPNEVYCSEASPGSDSGISEDPCHPDSPPAPRATSSPMLYEVVYEAGALERMQGETGPNVGLISIQLDQWSPAFMVPDSCMVSELPFDAHAHILPRAGTVAPVPCTTLLPCQTLFLTDEEKRLLGQEGVSLPSHLPLTKAEERVLKKVRRKIRNKQSAQDSRRRKKEYIDGLESRVAACSAQNQELQKKVQELERHNISLVAQLRQLQTLIAQTSNKAAQTSTCVLILLFSLALIILPSFSPFQSRPEAGSEDYQPHGVTSRNILTHKDVTENLETQVVESRLREPPGAKDANGSTRTLLEKMGGKPRPSGRIRSVLHADEM
For B1, the binding (VN-HOXB13 (human) [4]) was “binds”, the binding (HA-HOXB13 (human)) was “binds” and the binding (VN-HOXB13 (human) [5]) was “binds”.

B2: CC-NRF1 (protein, UniProt Q16656 1-503)
chain: MEEHGVTQTEHMATIEAHAVAQQVQQVHVATYTEHSMLSADEDSPSSPEDTSYDDSDILNSTAADEVTAHLAAAGPVGMAAAAAVATGKKRKRPHVFESNPSIRKRQQTRLLRKLRATLDEYTTRVGQQAIVLCISPSKPNPVFKVFGAAPLENVVRKYKSMILEDLESALAEHAPAPQEVNSELPPLTIDGIPVSVDKMTQAQLRAFIPEMLKYSTGRGKPGWGKESCKPIWWPEDIPWANVRSDVRTEEQKQRVSWTQALRTIVKNCYKQHGREDLLYAFEDQQTQTQATATHSIAHLVPSQTVVQTFSNPDGTVSLIQVGTGATVATLADASELPTTVTVAQVNYSAVADGEVEQNWATLQGGEMTIQTTQASEATQAVASLAEAAVAASQEMQQGATVTMALNSEAAAHAVATLAEATLQGGGQIVLSGETAAAVGALTGVQDANGLVQIPVSMYQTVVTSLAQGNGPVQVAMAPVTTRISDSAVTMDGQAVEVVTLEQ
B2 was tested, and the binding (VN-HOXA9 (human) [1]) was “binds”, the binding (HA-HOXA9 (human)) was “binds” and the binding (VN-HOXA9 (human) [6]) was “binds”.

B3: CC-PBX3 (protein, UniProt P40426 1-434)
chain: MDDQSRMLQTLAGVNLAGHSVQGGMALPPPPHGHEGADGDGRKQDIGDILHQIMTITDQSLDEAQAKKHALNCHRMKPALFSVLCEIKEKTGLSIRGAQEEDPPDPQLMRLDNMLLAEGVSGPEKGGGSAAAAAAAAASGGSSDNSIEHSDYRAKLTQIRQIYHTELEKYEQACNEFTTHVMNLLREQSRTRPISPKEIERMVGIIHRKFSSIQMQLKQSTCEAVMILRSRFLDARRKRRNFSKQATEILNEYFYSHLSNPYPSEEAKEELAKKCSITVSQVSNWFGNKRIRYKKNIGKFQEEANLYAAKTAVTAAHAVAAAVQNNQTNSPTTPNSGSSGSFNLPNSGDMFMNMQSLNGDSYQGSQVGANVQSQVDTLRHVINQTGGYSDGLGGNSLYSPHNLNANGGWQDATTPSSVTSPTEGPGSVHSDTSN
B3 was tested, and the binding (VN-HOXC6 (human)) was “binds”.

B4: CC-MEIS2 (protein, UniProt O14770 1-477)
chain: MAQRYDELPHYGGMDGVGVPASMYGDPHAPRPIPPVHHLNHGPPLHATQHYGAHAPHPNVMPASMGSAVNDALKRDKDAIYGHPLFPLLALVFEKCELATCTPREPGVAGGDVCSSDSFNEDIAVFAKQVRAEKPLFSSNPELDNLMIQAIQVLRFHLLELEKVHELCDNFCHRYISCLKGKMPIDLVIDERDGSSKSDHEELSGSSTNLADHNPSSWRDHDDATSTHSAGTPGPSSGGHASQSGDNSSEQGDGLDNSVASPGTGDDDDPDKDKKRQKKRGIFPKVATNIMRAWLFQHLTHPYPSEEQKKQLAQDTGLTILQVNNWFINARRRIVQPMIDQSNRAGFLLDPSVSQGAAYSPEGQPMGSFVLDGQQHMGIRPAGLQSMPGDYVSQGGPMGMSMAQPSYTPPQMTPHPTQLRHGPPMHSYLPSHPHHPAMMMHGGPPTHPGMTMSAQSPTMLNSVDPNVGGQVMDIHAQ
With B4 the binding (VN-HOXA1 (human) [7]) was “binds” and the binding (VN-HOXC8 (human)) was “binds”.
